{
  "sequences": {"note": "The chains behind the UniProt entries cited, without tags or fusion partners. Residues count along the entry.", "UniProt Q99IB8, residues 1977-2442": "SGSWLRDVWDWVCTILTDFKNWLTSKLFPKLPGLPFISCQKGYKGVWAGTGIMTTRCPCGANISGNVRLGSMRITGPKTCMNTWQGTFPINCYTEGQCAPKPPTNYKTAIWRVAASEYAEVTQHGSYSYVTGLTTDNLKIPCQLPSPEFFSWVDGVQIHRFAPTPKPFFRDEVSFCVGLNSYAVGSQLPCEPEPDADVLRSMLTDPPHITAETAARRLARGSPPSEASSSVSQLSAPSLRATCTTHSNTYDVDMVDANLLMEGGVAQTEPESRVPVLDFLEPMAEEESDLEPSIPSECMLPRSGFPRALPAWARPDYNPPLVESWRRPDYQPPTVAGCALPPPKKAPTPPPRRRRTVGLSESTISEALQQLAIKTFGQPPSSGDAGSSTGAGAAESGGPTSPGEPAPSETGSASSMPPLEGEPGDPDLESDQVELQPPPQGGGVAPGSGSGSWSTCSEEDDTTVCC", "UniProt P02649, residues 19-317": "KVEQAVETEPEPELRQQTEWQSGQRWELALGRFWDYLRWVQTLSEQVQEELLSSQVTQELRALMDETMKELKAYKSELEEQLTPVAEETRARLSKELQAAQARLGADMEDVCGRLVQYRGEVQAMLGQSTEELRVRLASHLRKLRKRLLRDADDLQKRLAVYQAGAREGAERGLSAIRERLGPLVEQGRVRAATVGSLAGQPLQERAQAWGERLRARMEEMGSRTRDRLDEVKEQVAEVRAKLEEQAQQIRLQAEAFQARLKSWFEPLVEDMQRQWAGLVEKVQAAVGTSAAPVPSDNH"},
  "source": "paper PMC10411793",
  "target": "myc-tagged NS5A wildtype (hepatitis C virus, strain JFH1) (UniProt Q99IB8)",
  "assay": "co-IP; HEK293T-miR122 cells co-transfected with HA-tagged ApoE and myc-tagged NS5A; lysed 30 h after transfection in 50 mM Tris-HCl pH 7.5, 150 mM NaCl, 1% Triton X-100, 1 mM EDTA, 10% glycerol; IP with rabbit anti-c-myc antibody and protein G beads at 4°C; Western blot with anti-HA antibody",
  "note": "These are yes or no findings as the source states them, for the method shown. Binding seen in cells or lysates may run through a third protein. Some results given as binding are weak or reduced against the parent protein; the word gives no strength.",
  "data": [
    {"substance": "HA-tagged ApoE (from UniProt P02649 19-317)", "values": [
      {"measurement": "binding", "result": "binds"}
    ]}
  ]
}
